# Results: PubChem BioAssay AID2685 (National Center for Advancing Translational Sciences (NCATS), 2010)
# Out of some 320,000 compounds screened, about 2,100 (0.66%) were called active. This list was built around the results that the source calls inconclusive (neither active nor inactive); the mix of calls is not that of the screen. The call rests on the fitted dose curve; in most records, active means well fitted inhibition curve with a large enough effect in the signal ratio, with a control signal flat (not every such curve was filed as active); inconclusive means small, poorly fitted or top-dose-only effect, or effect the other way, or a change in a side signal; inactive means flat fitted curve, though single readings scatter; the % refers to the signal ratio. Potencies of inconclusive entries are doubtful fits and often do not repeat.
# Experiment: qHTS Assay for Lipid Storage Modulators in Drosophila S3 Cells
# Details: BODIPY lipid droplet fluorescence, 18-24 h, cells fed with added oleic acid; lipid storage change, negative = inhibition: at 46.1 µM (top of the series) unless noted
# Procedure, shortened: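 Drosophila S3 cells got compounds at several concentrations plus oleic acid (400 uM solution). Laser-scanning cytometry with 488 nm excitation read lipid droplets at 500-530 nm and cells at 575-640 nm. Percent activity was relative to 20 uM Triacsin C.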
# On the % scale 0 is the no-effect control and ±100 the full control effect; potency means the concentration at half of the fitted maximal effect.
SMILES,Potency,"lipid storage change, negative = inhibition"
Cc1ccccc1C(=O)NNC(=O)C1CCN(c2ncccn2)CC1,"inconclusive: 0.13 µM [activator, single point]",
CCn1cc(CNCc2cn(-c3ccccc3C)nc2-c2ccc(OC)c(F)c2)cn1,,inconclusive: 39.7%
C=C(C)CSc1nc2nc(C)c(Br)cc2[nH]1,,inconclusive: 134%
COC(CNC(=O)c1ccc2c(c1)ncn2-c1cccc(C)c1)OC,,inconclusive: 19.4%
O=C(COc1ccc([N+](=O)[O-])cc1)Nc1ccncc1,,inconclusive: 26.3%
CCN(CC)S(=O)(=O)c1ccc(C(=O)NCCN2C(=O)S/C(=C\c3cccnc3)C2=O)cc1,,inconclusive: 15.5%
Cc1nc(-c2nc(-c3c(C(=O)NNC(=O)c4ccc(Cl)cc4)noc3C)cs2)cs1,,inconclusive: 17.2%
O=C(c1ccc(Cl)c(F)c1F)N1CCCC1,,inactive
Cc1onc(-c2ccccc2Cl)c1C(=O)NNC(=O)c1ccc(F)cc1,,inconclusive: 39.2%
Cc1ccc2c(c1)N(CC(=O)N1CCC(C)CC1)C(=O)c1cccnc1O2,,inconclusive: 7.69%
O=c1c(Cc2ccc(F)cc2)c(O)ccn1CCc1cnc[nH]1,"inconclusive: 0.411 µM [activator, single point]",
O=C(Nc1ccncc1)c1ccc(N2CCCC2=O)cc1,,inconclusive: 6.2%
COc1cc2cc(CN(Cc3cccnc3)C(=O)Nc3ccccc3)c(=O)[nH]c2cc1OC,"inconclusive: 0.82 µM [falling, single point]",
COc1ccc(C(=O)COC(=O)CCNS(=O)(=O)c2ccccc2)c(OC)c1,,inconclusive: 5.71%
Cc1ccc(NC(=O)CN(C)S(=O)(=O)c2cccc3cccnc23)cc1,,inconclusive: -40.5%
CCc1ccccc1Nc1nc(N)nc(COC(=O)C2CCN(C(=O)c3ccc(F)cc3)CC2)n1,,inconclusive
O=C(CSC1=NC(=O)C(c2ccccc2)C(=O)N1)Nc1ccccc1[N+](=O)[O-] (configuration not stated),,inconclusive: -27%
O=C(Nc1ccc(Br)cc1)C1CCCC1,,inconclusive: -61.6%
Cc1cc(NC(=O)c2cc(-c3ccccn3)nc3ccc(Br)cc23)no1,"inconclusive: 20.6 µM [activator, single point]",
CCC1CCCCN1CCCNC(=O)CN1C(=O)c2cccnc2Oc2ccc(C)cc21 (configuration not stated),,inconclusive: 34%
Cc1ccc(-c2nc3ncccn3c2Nc2ccc3c(c2)OCCO3)o1,,inconclusive: 4.36%
CC(C)c1nc2sc3c(=O)[nH]c(=S)[nH]c3c2c2c1CCC2,active: 20.6 µM,
COc1ccc(S(=O)(=O)N(C)c2ccc(C(N)=O)cc2)cc1,active: 18.4 µM,
COC(=O)c1cc(NC(=O)CCc2c(C)nc3ncnn3c2C)cc(C(=O)OC)c1,,inconclusive: -0.694%
CCC(CC)C(=O)Nc1cc(=O)n(C)c(=O)n1C,"inconclusive: 2.06 µM [activator, single point]",
CCS(=O)(=O)c1ncc(Cl)c(C(=O)Nc2ccc(S(=O)(=O)N3CCC(C)CC3)cc2)n1,active: 1.3 µM,

SMILES,Potency,"lipid storage change, negative = inhibition"
CC(C)(C)NS(=O)(=O)c1ccc(NC(=O)C2CCCCC2)cc1,,inconclusive: -35.6%
CCN(c1ccccc1)S(=O)(=O)c1ccc(NC(=S)NC(=O)c2cccs2)cc1,"inconclusive: 29.1 µM [falling, single point]",
CCc1ccc(-c2nc(CS(=O)CC(=O)NCc3cccnc3)c(C)o2)cc1 (configuration not stated),"inconclusive: 2.31 µM [activator, full curve]",
COc1cccc(C2NC(=O)NC(C)=C2C(=O)OCC2CCCCC2)c1 (configuration not stated),,inconclusive: -28.9%
CC(=O)c1cnc(SCC(=O)O)nc1C,,inconclusive: -6.2%
CCc1ccc(NC(=O)CSc2nnc(-c3ccco3)o2)cc1,,inconclusive: -6.79%
Cc1ccc2[nH]c(C)cc(=S)c2c1,,inconclusive: -51.1%
Cc1oc(/N=C/c2ccc(Cl)cc2)c(C#N)c1C,"inconclusive: 3.26 µM [falling, partial curve, poor fit]",
O=S(=O)(N/N=C/c1ccc2c(c1)OCCO2)c1ccccc1,,inconclusive: 145%
Cc1cccc(C)c1NC(=O)CN(C)C(=O)CC1CC2CCC1C2 (configuration not stated),"inconclusive: 0.461 µM [falling, partial curve, poor fit]",
Cn1c(SCC(=O)NCCc2ccccc2)ncc(C(=O)Nc2ccc(F)cc2)c1=O,,inconclusive: 18.7%
O=C(c1ccccc1)N1CCN(C(=O)c2cc3nc(-c4ccccc4)cc(C(F)(F)F)n3n2)CC1,,inconclusive: -26.9%
C=CCC1(C)C(=O)N(c2ccccc2)c2ccccc21 (configuration not stated),,inconclusive: 13%
COc1ccc2oc(C(=O)OCc3c(C)noc3C)c(C)c2c1,,inconclusive: 130%
O=C(Nc1cc2c(ccc3ccccc32)oc1=O)C1CCCCC1,"inconclusive: 25.9 µM [cytotoxic, single point]",
CC(=O)c1ccc(NC(=O)CN2CCOCC2)cc1,,inconclusive: -7.79%
CCCn1c(SCC(=O)Nc2ccc(NC(C)=O)cc2)nc2c1c(=O)n(C)c(=O)n2C,,inactive
COc1ccc(S(=O)(=O)NCc2ccccn2)c(C)c1C,,inconclusive: 10.9%
COc1ccc(C(=O)NC(=S)N2CCOCC2)cc1[N+](=O)[O-],,inconclusive: -5.37%
CC(C)(C)c1ccc(C(=O)Nc2ccccc2Cl)cc1,,inconclusive: -8.65%
Cc1cc(C(=O)NCC(=O)OC(C)C(=O)N2CCOCC2)ccc1[N+](=O)[O-] (configuration not stated),"inconclusive: 6.51 µM [falling, single point]",
CS(=O)(=O)Nc1ccc(C(=O)NC2CCCC2)cc1,active: 2.91 µM,
O=CN1CCN(S(=O)(=O)c2ccc(S(=O)(=O)NC3CCCCC3)cc2)CC1,,inconclusive: -11.1%
CCOC(=O)c1cc2c(ccn2C)n1Cc1ccccc1Cl,,inconclusive: -28.6%
Cc1ccc(C(=O)NC(=S)Nc2cccc3c(C)cc(C)nc23)cc1,,inconclusive: -34.6%
COc1cccc(Cn2c(C3CC3)nc3ccc(NC(=O)c4ccco4)cc3c2=O)c1,"inconclusive: 1.46 µM [activator, partial curve]",

SMILES,Potency,"lipid storage change, negative = inhibition"
CC1CCCN(C(=O)COC(=O)c2cc(-c3cccs3)nn2-c2ccccc2)C1 (configuration not stated),,inconclusive: 41.6%
Cc1ccc(SCC(=O)Nc2ccc(N3CCOCC3)cc2)cc1C,"inconclusive: 2.91 µM [activator, partial curve]",
CC(=O)c1cccc(OCC(=O)Nc2cccc(C(=O)Nc3c(C)n(C)n(-c4ccccc4)c3=O)c2)c1,,inconclusive: -4.88%
O=C1N=c2ccc([N+](=O)[O-])cc2=C1c1sc(=O)[nH]c1O,,inconclusive: 41.4%
Cc1ccc2nc(Br)c3c(c2c1)OC(CBr)C3 (configuration not stated),"inconclusive: 25.9 µM [falling, partial curve, poor fit]",
CCOc1ccccc1CN1CCNC(=O)C1CC(=O)NCCCn1cccn1 (configuration not stated),,inactive
Cc1cc(C)c(C#N)c(N2CCN(c3ccccc3F)CC2)n1,,inconclusive: 59.6%
O=C(NCCCN1CCOCC1)c1ccc2c(=O)n(Cc3cccc(Br)c3)c(=S)[nH]c2c1,"inconclusive: 6.51 µM [activator, single point]",
C/C(=N/NC(=O)c1ccc(C)s1)c1ccncc1,,inconclusive: 21.4%
COc1cc(-n2c(N)c(C(=O)NCc3ccco3)c3nc4ccccc4nc32)cc(OC)c1OC,"inconclusive: 0.517 µM [activator, full curve, poor fit]",
CCCCc1ccc(Nc2nc(N3CCOCC3)nc(N3CCOCC3)n2)cc1,"inconclusive: 23.1 µM [activator, single point]",
Cc1ccccc1-n1c(CSC(=N)N)nc2ccccc2c1=O,,inconclusive: 0.534%
Cc1ccc(CCNC(=O)C2CCN(S(=O)(=O)N3CCC4(CC3)OCCO4)CC2)cc1,"inconclusive: 20.6 µM [activator, partial curve]",
CCn1c(CNC(=O)c2ccco2)nnc1SCC(=O)Nc1cc(F)ccc1C,,inconclusive: -71.9%
COC(=O)CNC(=O)C(Cc1c[nH]c2ccccc12)NC(=O)OC(C)(C)C (configuration not stated),"inconclusive: 29.1 µM [activator, single point]",
Cc1ccc(C)c(CN2CCCN(C(=O)Cn3ncc4c3-c3ccccc3OC4)C2)c1,,inconclusive: -12.5%
CC(C)[C@@H](CO)NC(=O)c1ccc2c3n(nc2c1)-c1ccc(Cl)cc1CO3,,inconclusive: 8.3%
CCCc1cc(=O)oc2cc(OC3CCCCC3=O)ccc12 (configuration not stated),,inconclusive: 3.68%
Cc1cccc(OCc2nnc(SCC(=O)Nc3ncc(C)s3)o2)c1,,inconclusive: 33.4% [at 9.22 µM]
COc1c2ccoc2nc2c(OC)cccc12,"inconclusive: 0.13 µM [activator, full curve, poor fit]",
O=C(NCC(c1ccco1)N1CCCC1)c1sc2ccccc2c1Cl (configuration not stated),"inconclusive: 0.731 µM [falling, full curve, poor fit]",
Nc1c2c(nc3ccn(-c4ccccc4)c(=O)c13)CCCCC2,,inconclusive: 10.6%
COc1ccc(CNS(=O)(=O)c2cc3c4c(c2)CCN4C(=O)CC3)cc1,"inconclusive: 32.6 µM [falling, partial curve, poor fit]",
CN1CCc2nc(SCC(=O)Nc3ccc(F)cc3)c(C#N)cc2C1,"inconclusive: 18.4 µM [activator, single point]",
O=C(Nc1ccc(S(=O)(=O)N2CCCCC2)cc1)C1CC(=O)N(Cc2ccccc2)C1 (configuration not stated),,inconclusive

# Retrieved by compound from the entries so far (3):
SMILES,Potency,"lipid storage change, negative = inhibition"
Cc1ccc(CCNC(=O)C2CCN(S(=O)(=O)N3CCC4(CC3)OCCO4)CC2)cc1,"inconclusive: 20.6 µM [activator, partial curve]",
CC(C)[C@@H](CO)NC(=O)c1ccc2c3n(nc2c1)-c1ccc(Cl)cc1CO3,,inconclusive: 8.3%
Cc1cc(C)c(C#N)c(N2CCN(c3ccccc3F)CC2)n1,,inconclusive: 59.6%
